According to publication PMC6335052:
No constants are given. Whether binding was seen depends on the method and setting. Where a sequence is shown, tags or fusion partners need not be part of it.

Molecular target: T1, Piwi, yeast two-hybrid fusion (Drosophila melanogaster), Q9VKM1
T1 chain: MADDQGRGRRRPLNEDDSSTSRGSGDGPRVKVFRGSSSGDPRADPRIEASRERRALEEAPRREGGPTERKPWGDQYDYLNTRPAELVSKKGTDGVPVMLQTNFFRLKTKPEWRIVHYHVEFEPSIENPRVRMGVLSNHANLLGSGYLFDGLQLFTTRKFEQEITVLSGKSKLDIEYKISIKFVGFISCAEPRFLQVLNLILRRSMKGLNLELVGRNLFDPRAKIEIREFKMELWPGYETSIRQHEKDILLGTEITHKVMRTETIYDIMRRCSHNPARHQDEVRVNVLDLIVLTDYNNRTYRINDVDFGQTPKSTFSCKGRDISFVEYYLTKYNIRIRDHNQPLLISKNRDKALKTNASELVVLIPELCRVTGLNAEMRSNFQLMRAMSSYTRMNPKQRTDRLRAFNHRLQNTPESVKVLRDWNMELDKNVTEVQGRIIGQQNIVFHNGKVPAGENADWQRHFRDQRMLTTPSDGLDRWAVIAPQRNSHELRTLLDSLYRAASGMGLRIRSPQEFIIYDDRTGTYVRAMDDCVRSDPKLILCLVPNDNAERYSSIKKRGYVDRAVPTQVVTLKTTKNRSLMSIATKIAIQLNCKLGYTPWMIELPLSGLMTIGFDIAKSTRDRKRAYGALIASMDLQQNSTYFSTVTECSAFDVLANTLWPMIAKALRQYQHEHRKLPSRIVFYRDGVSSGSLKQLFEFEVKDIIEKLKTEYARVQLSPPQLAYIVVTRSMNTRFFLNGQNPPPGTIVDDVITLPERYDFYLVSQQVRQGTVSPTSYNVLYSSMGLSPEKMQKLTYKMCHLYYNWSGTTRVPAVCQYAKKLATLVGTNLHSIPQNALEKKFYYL
Experiment: two-hybrid; pGBKT7 bait and pGAD prey plasmids co-transformed into AH109 yeast; colonies from SC-WL picked onto selective SC-WLH or SC-WLHA plates
Details: remark: other sources report otherwise

B1: Heterochromatin Protein 1a (HP1a), yeast two-hybrid fusion, P05205 1-206 (protein)
chain: MGKKIDNPESSAKVSDAEEEEEEYAVEKIIDRRVRKGKVEYYLKWKGYPETENTWEPENNLDCQDLIQQYEASRKDEEKSAASKKDRPSSSAKAKETQGRASSSTSTASKRKSEEPTAPSGNKSKRTTDAEQDTIPVSGSTGFDRGLEAEKILGASDNNGRLTFLIQFKGVDQAEMVPSSVANEKIPRMVIHFYEERLSWYSDNED
In the case of B1, the binding is reported as “no binding”.
